Measurements taken from the supplement of paper PMC10849652.
This is one part of the list.

Amino acid sequences for entries named in this document (tags omitted). A change or cut given only in a name is not applied to a line headed by its entry.
UniProt Q4G176: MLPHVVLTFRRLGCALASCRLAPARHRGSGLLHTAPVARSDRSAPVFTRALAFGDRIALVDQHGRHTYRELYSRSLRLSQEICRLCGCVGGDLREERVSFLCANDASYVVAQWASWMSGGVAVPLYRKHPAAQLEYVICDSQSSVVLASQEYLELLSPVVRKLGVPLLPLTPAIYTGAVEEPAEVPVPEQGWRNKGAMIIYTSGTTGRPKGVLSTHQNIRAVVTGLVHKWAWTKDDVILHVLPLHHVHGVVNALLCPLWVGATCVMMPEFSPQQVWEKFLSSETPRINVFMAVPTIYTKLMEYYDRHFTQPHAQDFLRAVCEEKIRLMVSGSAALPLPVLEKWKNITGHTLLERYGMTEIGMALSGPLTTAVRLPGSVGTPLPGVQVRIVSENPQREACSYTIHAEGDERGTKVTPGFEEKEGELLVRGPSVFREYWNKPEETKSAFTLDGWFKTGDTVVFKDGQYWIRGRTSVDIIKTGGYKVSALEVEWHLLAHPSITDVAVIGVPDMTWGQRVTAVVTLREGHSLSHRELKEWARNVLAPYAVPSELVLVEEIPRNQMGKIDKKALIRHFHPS
UniProt Q99758: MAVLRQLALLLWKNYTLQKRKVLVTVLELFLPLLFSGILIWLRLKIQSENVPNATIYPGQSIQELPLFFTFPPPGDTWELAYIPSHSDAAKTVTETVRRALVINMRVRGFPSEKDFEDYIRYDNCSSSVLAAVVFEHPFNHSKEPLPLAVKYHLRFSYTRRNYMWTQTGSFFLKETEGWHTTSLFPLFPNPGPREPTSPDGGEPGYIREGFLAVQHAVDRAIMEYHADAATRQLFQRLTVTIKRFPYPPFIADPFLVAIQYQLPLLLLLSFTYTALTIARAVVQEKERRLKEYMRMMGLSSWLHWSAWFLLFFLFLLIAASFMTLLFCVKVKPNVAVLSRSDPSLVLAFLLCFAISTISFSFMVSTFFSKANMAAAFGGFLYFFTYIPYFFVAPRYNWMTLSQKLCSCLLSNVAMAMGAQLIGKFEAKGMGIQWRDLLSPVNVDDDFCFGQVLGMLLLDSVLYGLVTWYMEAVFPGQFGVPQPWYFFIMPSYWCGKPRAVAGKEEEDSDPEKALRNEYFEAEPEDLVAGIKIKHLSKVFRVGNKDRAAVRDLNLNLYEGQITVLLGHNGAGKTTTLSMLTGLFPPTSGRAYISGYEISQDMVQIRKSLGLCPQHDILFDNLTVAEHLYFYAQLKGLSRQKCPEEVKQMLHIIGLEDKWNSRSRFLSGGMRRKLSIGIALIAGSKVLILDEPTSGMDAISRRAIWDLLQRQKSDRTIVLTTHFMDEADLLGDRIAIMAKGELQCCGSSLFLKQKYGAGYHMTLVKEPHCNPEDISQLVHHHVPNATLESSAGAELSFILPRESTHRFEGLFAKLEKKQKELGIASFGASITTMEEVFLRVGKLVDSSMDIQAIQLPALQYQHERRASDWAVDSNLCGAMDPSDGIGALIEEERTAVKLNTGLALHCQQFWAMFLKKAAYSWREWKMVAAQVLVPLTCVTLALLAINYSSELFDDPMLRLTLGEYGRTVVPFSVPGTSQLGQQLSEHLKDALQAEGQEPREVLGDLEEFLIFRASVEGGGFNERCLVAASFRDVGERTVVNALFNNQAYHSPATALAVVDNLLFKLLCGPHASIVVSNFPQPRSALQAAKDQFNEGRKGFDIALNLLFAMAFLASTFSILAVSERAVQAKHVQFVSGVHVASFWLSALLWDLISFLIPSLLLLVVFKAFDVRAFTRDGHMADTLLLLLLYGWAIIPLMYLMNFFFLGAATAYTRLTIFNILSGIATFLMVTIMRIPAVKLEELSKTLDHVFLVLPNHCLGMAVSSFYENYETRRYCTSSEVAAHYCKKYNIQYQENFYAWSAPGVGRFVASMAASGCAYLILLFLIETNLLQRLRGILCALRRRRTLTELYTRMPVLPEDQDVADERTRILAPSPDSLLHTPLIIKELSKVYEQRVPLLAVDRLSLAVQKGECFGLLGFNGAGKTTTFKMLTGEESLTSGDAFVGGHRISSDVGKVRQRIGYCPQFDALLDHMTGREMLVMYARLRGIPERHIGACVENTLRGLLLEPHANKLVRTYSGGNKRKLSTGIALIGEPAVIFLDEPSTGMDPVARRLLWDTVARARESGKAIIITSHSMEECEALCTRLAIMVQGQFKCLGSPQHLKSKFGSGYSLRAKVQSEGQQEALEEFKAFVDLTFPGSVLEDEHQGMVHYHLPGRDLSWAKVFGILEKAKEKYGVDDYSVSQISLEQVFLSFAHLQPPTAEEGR
UniProt Q6PD74: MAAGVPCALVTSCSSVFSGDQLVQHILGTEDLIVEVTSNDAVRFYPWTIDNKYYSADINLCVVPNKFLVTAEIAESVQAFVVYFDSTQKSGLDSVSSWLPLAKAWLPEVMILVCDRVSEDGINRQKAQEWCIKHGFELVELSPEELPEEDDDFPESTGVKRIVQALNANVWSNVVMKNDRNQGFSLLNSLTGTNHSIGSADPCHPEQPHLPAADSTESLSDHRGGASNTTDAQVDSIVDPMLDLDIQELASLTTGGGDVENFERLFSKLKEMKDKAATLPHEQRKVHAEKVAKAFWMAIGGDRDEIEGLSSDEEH
UniProt Q9Y312: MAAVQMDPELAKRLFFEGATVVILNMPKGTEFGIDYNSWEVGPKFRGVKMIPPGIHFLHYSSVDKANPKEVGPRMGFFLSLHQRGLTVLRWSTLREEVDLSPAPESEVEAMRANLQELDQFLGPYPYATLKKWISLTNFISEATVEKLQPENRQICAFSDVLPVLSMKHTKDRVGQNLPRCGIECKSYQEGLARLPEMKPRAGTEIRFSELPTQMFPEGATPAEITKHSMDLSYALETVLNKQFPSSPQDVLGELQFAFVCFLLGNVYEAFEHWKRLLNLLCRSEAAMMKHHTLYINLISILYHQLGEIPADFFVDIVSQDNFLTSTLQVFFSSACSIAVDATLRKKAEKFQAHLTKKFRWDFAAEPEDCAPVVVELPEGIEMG
UniProt Q99798: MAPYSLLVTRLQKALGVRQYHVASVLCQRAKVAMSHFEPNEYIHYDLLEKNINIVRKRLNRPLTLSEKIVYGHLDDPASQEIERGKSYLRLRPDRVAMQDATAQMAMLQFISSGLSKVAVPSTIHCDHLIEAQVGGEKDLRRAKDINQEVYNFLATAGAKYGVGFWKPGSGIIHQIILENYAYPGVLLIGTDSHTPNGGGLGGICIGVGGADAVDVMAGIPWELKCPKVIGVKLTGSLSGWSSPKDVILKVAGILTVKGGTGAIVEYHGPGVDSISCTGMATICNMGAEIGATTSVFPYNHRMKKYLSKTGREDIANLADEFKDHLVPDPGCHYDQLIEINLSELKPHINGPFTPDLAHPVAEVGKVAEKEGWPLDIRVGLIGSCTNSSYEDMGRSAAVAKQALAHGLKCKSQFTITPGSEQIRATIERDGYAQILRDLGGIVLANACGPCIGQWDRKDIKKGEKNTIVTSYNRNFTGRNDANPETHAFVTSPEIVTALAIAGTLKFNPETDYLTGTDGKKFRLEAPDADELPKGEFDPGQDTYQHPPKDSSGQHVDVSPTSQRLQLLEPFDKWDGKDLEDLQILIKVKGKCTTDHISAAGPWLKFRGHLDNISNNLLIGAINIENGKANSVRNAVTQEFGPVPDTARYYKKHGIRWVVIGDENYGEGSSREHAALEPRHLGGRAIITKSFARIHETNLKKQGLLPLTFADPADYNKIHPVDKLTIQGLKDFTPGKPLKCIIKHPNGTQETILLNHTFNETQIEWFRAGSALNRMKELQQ
UniProt Q9UKV3: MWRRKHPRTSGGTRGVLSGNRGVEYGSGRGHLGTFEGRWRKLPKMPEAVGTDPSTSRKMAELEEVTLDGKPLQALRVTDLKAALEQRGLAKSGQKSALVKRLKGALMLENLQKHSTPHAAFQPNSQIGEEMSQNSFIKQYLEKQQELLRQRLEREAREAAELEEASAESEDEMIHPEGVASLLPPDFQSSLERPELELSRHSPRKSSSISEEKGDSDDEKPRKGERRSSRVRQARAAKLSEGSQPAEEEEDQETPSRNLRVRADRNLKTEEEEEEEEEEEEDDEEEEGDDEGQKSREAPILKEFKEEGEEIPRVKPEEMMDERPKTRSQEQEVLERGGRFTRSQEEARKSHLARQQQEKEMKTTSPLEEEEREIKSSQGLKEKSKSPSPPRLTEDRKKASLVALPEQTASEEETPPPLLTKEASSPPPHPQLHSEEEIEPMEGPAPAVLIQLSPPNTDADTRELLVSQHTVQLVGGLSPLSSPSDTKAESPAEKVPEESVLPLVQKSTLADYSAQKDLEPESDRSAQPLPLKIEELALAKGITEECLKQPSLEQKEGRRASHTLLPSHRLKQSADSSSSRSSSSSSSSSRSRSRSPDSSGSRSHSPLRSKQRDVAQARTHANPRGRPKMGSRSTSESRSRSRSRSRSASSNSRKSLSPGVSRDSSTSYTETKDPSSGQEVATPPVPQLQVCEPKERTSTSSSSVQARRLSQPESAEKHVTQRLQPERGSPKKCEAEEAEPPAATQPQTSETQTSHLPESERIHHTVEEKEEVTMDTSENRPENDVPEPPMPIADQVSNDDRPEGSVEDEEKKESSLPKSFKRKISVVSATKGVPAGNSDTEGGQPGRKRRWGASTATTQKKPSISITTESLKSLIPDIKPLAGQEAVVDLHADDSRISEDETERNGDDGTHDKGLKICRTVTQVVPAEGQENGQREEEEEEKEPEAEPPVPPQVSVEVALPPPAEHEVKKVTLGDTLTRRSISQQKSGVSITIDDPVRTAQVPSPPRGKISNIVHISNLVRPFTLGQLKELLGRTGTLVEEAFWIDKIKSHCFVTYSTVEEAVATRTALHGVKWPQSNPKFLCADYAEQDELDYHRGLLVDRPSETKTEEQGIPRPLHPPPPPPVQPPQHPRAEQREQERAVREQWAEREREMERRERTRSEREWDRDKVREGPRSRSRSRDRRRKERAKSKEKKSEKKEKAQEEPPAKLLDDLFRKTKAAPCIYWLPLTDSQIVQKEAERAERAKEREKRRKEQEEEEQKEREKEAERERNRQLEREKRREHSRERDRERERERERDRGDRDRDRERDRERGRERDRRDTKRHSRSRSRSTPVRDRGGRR
UniProt Q9BTE6: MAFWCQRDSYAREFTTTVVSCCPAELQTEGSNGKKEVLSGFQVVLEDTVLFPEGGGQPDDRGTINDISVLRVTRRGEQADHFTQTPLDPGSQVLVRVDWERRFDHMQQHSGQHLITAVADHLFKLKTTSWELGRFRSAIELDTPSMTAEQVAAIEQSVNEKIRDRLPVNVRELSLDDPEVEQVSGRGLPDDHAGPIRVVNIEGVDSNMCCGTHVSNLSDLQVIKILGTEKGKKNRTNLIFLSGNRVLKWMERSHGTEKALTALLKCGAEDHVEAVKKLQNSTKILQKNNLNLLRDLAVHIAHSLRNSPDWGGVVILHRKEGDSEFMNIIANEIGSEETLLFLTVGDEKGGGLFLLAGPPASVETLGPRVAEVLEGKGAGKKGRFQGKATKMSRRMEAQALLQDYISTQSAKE
UniProt O95870: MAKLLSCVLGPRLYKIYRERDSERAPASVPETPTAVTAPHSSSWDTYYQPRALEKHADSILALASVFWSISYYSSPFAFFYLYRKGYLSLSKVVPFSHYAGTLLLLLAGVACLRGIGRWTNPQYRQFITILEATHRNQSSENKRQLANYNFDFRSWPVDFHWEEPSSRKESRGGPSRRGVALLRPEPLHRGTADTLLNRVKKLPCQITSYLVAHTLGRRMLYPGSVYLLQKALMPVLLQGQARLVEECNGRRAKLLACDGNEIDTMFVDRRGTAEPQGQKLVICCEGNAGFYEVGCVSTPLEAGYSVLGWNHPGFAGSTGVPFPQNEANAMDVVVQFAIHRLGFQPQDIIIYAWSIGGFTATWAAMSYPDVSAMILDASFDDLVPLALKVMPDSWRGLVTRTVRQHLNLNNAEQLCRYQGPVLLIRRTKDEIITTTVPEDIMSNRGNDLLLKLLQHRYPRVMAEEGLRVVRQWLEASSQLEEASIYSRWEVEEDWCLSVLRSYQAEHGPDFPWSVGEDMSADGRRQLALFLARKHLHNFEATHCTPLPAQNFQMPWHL
UniProt P14621: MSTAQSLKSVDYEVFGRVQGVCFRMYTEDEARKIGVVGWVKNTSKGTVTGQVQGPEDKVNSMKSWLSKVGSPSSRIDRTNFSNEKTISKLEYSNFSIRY
UniProt P11310: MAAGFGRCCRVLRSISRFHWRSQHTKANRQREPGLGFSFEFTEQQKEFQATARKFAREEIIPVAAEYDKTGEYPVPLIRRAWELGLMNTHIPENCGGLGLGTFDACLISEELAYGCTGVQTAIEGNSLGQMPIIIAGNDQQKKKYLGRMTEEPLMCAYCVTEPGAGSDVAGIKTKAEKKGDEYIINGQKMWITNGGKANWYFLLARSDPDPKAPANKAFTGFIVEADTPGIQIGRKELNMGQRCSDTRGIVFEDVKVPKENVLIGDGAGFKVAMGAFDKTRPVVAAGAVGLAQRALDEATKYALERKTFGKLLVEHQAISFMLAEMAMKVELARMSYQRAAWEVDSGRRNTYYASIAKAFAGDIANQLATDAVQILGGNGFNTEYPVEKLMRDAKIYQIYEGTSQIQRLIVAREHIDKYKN

Compound: CC[C@@H]1C(=O)N(C)c2cnc(Nc3ccc(C(=O)NC4CCN(C)CC4)cc3OC)nc2N1C1CCCC1
Test: log2 fold change, soluble protein after heating vs DMSO (PISA); higher = thermal stabilisation; K562 cells, 10 uM, 30 min; active = over 0.2 and 3.5 SD of the protein, either way, in both replicates (recomputed)
How it was run: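 Soluble protein was defined as the supernatant after 21,000xg for 90 min. It came from K562 cells at 2×10^6 cells/mL given 10 μM compound for 30 min, heated in aliquots for 3 min across 48°C-58°C, pooled, and extracted in PBS with 0.5% NP-40 at 4°C, and was quantified by TMTpro 16plex LC-MS/MS with equalised channel sums. Thermal stability against control samples, from duplicates, is reported as log2 fold change.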

log2 fold change, inactive:
ACSF3 (UniProt Q4G176) -0.014
ACAT1, A0A5F9ZHJ0 0.091
AAMP (UniProt Q13685) 0.072
ACADVL isoform 3 (UniProt P49748) 0.119
ACSL1 (UniProt P33121) -0.09
ACOX3 (UniProt O15254) -0.346
ABCB4 (UniProt P21439) 0.169
ABCA3 (UniProt Q99758) -0.155
ACVR1 (UniProt Q04771) -0.104
AAGAB (UniProt Q6PD74) -0.106
ACP2 (UniProt P11117) -0.156
ABHD6 (UniProt Q9BV23) 0.103
ACACB (UniProt O00763) -0.006
AAR2 (UniProt Q9Y312) -0.032
ACP1 (UniProt P24666) 0.084
ACO2 (UniProt Q99798) 0.043
ACIN1 (UniProt Q9UKV3) -0.017
AARSD1 (UniProt Q9BTE6) -0.042
ADAMTS13 (UniProt Q76LX8) -0.002
ABHD11 (UniProt Q8NFV4) -0.077
ACTN4 (UniProt K7EJH8) 0.026
ABHD16A (UniProt O95870) 0.134
ACYP2 (UniProt P14621) -0.115
ACADM isoform 2 (UniProt P11310) -0.045
ABITRAM (UniProt Q9NX38) 0.033
AAK1 (UniProt Q2M2I8) 0.078
AARSD1 isoform 3 (UniProt Q9BTE6) -0.081
ACTBL2 (UniProt Q562R1) -0.121
ACTG1 (UniProt K7EM38) 0.201
ACTR1B (UniProt P42025) 0.081
AARS2 (UniProt Q5JTZ9) 0.001
A2ML1 (UniProt A8K2U0) 0.034
ACSL5 isoform 3 (UniProt Q9ULC5) -0.013
ACSS1 (UniProt Q9NUB1) -0.064
ABL1 isoform 2 (UniProt P00519) 0.037
ABRAXAS1 (UniProt Q6UWZ7) 0.117
ACAP2 (UniProt Q15057) -0.034
ACAA2 (UniProt K7ER88) 0.254

2 entries drawn at random from those above:
log2 fold change, inactive:
AAK1 (UniProt Q2M2I8) 0.078
ACP2 (UniProt P11117) -0.156
